Source: US11517568B2, “Compounds and methods for treating nematode infections” (The Governing Council of The University of Toronto, priority 2018, dated 2022)
At least one compound was matched to its structure with a doubt left.

System: wild type C. elegans
Assay: Manual monitoring of locomotion phenotype of wild type C. elegans on solid agar containing the small molecule
Type: in vivo, Caenorhabditis elegans
Settings: solid agar substrate
Excerpt: The ability of the 64 Egl hits to modulate the normal sinusoidal locomotion of wild type C. elegans was then examined. The animal's behaviour over the course of several hours was manually monitored while the animal moved atop a solid agar substrate containing the small molecule. Many different genes govern the sinusoidal locomotion of wild type C. elegans, but their mutation can lead to qualitatively distinct locomotory phenotypes.

`CCC1CCC(N2CCN(c3ccc([N+](=O)[O-])cc3)CC2)CC1` (stereo not shown) [Ic] was tested, and the locomotory phenotype induced was “‘severe’ snake-like coiler phenotype and paralysis”.
